Counter-ions that a name gives are not always drawn. This is one part of the list. Hit calls seldom repeat between salt and free forms of one compound.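 Kinases were expressed as nanoluciferase fusions in K562 cells and luminescence was read every 4 h between 2 and 18 h as percent of control, DMSO set to 100% and a positive control to 0%. A time point counts as decreased when the signal drops significantly (2 sigma). The hit call is the authors' own, does not follow from the count of time points alone, and its rule is not shown.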
molecular target: CDK10 (UniProt Q15131); assay: kinase-Nluc reporter destabilization hit call (1 = scored as downregulated) (binary); higher = compound decreases kinase abundance; conditions: K562; 2-18 h

The chains behind the UniProt entries cited, without tags or fusion partners. Where a name states a change or a piece, a line headed by the entry shows the natural chain unless it says otherwise.
UniProt Q15131: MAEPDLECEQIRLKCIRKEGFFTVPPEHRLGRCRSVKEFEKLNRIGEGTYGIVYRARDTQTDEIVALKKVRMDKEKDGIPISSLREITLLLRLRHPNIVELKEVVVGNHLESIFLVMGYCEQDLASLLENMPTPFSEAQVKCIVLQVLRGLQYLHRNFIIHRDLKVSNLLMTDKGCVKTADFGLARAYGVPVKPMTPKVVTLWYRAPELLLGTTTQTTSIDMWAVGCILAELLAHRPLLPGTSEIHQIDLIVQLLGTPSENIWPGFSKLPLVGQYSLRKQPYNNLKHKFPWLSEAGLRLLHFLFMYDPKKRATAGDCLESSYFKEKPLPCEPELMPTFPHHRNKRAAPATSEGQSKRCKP

Question: For `COC[C@H]1OC(=O)c2coc3c2[C@@]1(C)C1=C(C3=O)[C@@H]2CCC(=O)[C@@]2(C)C[C@H]1OC(C)=O` [Wortmannin] (2.5 µM), which “kinase-Nluc reporter destabilization hit call” value is on record?
Answer: inactive: 0

Question: With `CC(=O)c1c(O)c(C)c(O)c(Cc2c(O)c3c(c(C(=O)/C=C/c4ccccc4)c2O)OC(C)(C)C=C3)c1O` [Rottlerin] (2 µM) as the compound, how does the “kinase-Nluc reporter destabilization hit call” value read?
Answer: inactive: 0

Question: `NCCc1cn(S(=O)(=O)c2c(Cl)nc3sccn23)c2ccccc12` (10 µM) was tested. Which “kinase-Nluc reporter destabilization hit call” value did it give?
Answer: inactive: 0

molecular target: CDK2 (UniProt P24941); assay: as above; conditions: K562; 2-18 h

Question: `CCCCNc1nc(N)c2[nH]c(=O)n(Cc3ccc(C)nc3)c2n1` (10 µM) was tested. Which “kinase-Nluc reporter destabilization hit call” value did it give?
Answer: inactive: 0

Question: `N#CC(C#N)=Cc1ccc([N+](=O)[O-])c(O)c1` (10 µM) was tested. Which “kinase-Nluc reporter destabilization hit call” value did it give?
Answer: inactive: 0

Question: With `O=c1[nH]c2ccccc2n1C1CCN(Cc2ccc(-c3[nH]c4cc5ncnc5cc4nc3-c3ccccc3)cc2)CC1` [AKT inhibitor VIII] (2.5 µM) as the compound, how does the “kinase-Nluc reporter destabilization hit call” value read?
Answer: inactive: 0

Question: With `CC(=O)Oc1ccc(/C=C/c2cc(OC(C)=O)cc(OC(C)=O)c2)cc1` [Triacetylresveratrol] (10 µM) as the compound, how does the “kinase-Nluc reporter destabilization hit call” value read?
Answer: inactive: 0

Question: `O=C1c2ccccc2C(=O)c2c1cccc2-c1cnn(C2CCNCC2)c1` [PDK4-IN-1 (hydrochloride)] (10 µM) was tested. Which “kinase-Nluc reporter destabilization hit call” value did it give?
Answer: inactive: 0

Question: For `CC1C(=O)OC2C(O)C34C5OC(=O)C3(OC3OC(=O)C(O)C34C(C(C)(C)C)C5O)C12O` (stereo unspecified) [Ginkgolide C] (10 µM), which “kinase-Nluc reporter destabilization hit call” value is on record?
Answer: inactive: 0

Question: With `O=Cc1cn(Cc2ccc(Cl)cc2)c2ccccc12` [Oncrasin-1] (10 µM) as the compound, how does the “kinase-Nluc reporter destabilization hit call” value read?
Answer: inactive: 0

Question: `N#CC(C#N)=NNc1cccc(Cl)c1` (2.5 µM) was tested. Which “kinase-Nluc reporter destabilization hit call” value did it give?
Answer: inactive: 0

Question: With `CC(C)=CC[C@@H](OC(=O)CC(C)(C)O)C1=CC(=O)c2c(O)ccc(O)c2C1=O` [β-Hydroxyisovalerylshikonin] (2.5 µM) as the compound, how does the “kinase-Nluc reporter destabilization hit call” value read?
Answer: inactive: 0

Question: Which “kinase-Nluc reporter destabilization hit call” value does the source give for `O=c1ccc2cc(O[C@@H]3O[C@H](CO)[C@@H](O)[C@H](O)[C@H]3O)c(O)cc2o1` [Esculin] (10 µM) here?
Answer: inactive: 0

Question: With `C[C@H]1CC[C@]2(NC1)O[C@H]1C[C@H]3[C@@H]4CC[C@H]5C[C@@H](O)CC[C@]5(C)[C@H]4CC[C@]3(C)[C@H]1[C@@H]2C` [Tomatidine] (2 µM) as the compound, how does the “kinase-Nluc reporter destabilization hit call” value read?
Answer: inactive: 0

Question: Which “kinase-Nluc reporter destabilization hit call” value does the source give for `C/C(O)=C(\C#N)C(=O)Nc1cc(Br)ccc1Br` (10 µM) here?
Answer: inactive: 0

Question: With `COc1ccc2c(c[n+](C)c3c4cc5c(cc4ccc23)OCO5)c1OC` [Chelerythrine (chloride)] (10 µM) as the compound, how does the “kinase-Nluc reporter destabilization hit call” value read?
Answer: inactive: 0

Question: Which “kinase-Nluc reporter destabilization hit call” value does the source give for `COc1ccc2c(c1)[nH]c1c(C)nccc12` [Harmine] (10 µM) here?
Answer: inactive: 0

Question: With `CCCCCCCCCCCCCCCCOC[C@H](COP(=O)([O-])OCC[N+](C)(C)C)OC(C)=O` (10 µM) as the compound, how does the “kinase-Nluc reporter destabilization hit call” value read?
Answer: inactive: 0

Question: `O=C(O)c1sc2cc(Cl)ccc2c1Cl` (10 µM) was tested. Which “kinase-Nluc reporter destabilization hit call” value did it give?
Answer: inactive: 0

Question: For `C[S+]([O-])/C=C/CCN=C=S` (stereo unspecified) [Sulforaphene] (10 µM), which “kinase-Nluc reporter destabilization hit call” value is on record?
Answer: inactive: 0

Question: With `Cn1cc(C2=C(c3cn(C4CCN(Cc5ccccn5)CC4)c4ccccc34)C(=O)NC2=O)c2ccccc21` [Enzastaurin] (10 µM) as the compound, how does the “kinase-Nluc reporter destabilization hit call” value read?
Answer: inactive: 0

Question: For `CCN1CCN(C(=O)Cc2ccc(Nc3ncc(F)c(Nc4ccc(C(=O)Nc5ccccc5Cl)cc4)n3)cc2)CC1` (2.5 µM), which “kinase-Nluc reporter destabilization hit call” value is on record?
Answer: inactive: 0

Question: Which “kinase-Nluc reporter destabilization hit call” value does the source give for `Cc1n[nH]cc1-c1cc2nc([C@@H]3CC4CCN3CC4)[nH]c(=O)c2s1` [Simurosertib] (2.5 µM) here?
Answer: inactive: 0

Question: How did the “kinase-Nluc reporter destabilization hit call” value turn out when `O=C(N[C@@H](COc1ccc2[nH]c(=O)[nH]c2c1)c1ccccc1)c1cccn(Cc2ccc(F)c(F)c2)c1=O` (2.5 µM) was run?
Answer: inactive: 0

Question: `CCOC(=O)c1c(/C(C#N)=C\N)c2ccc(Cl)c(Cl)c2n1C` (10 µM) was tested. Which “kinase-Nluc reporter destabilization hit call” value did it give?
Answer: inactive: 0

Question: How did the “kinase-Nluc reporter destabilization hit call” value turn out when `C[C@H](CCC(=O)O)C[C@H](C)C[C@H](C)C(=O)/C=C(\O)[C@H](C)C[C@H](C)C/C=C/[C@@H](C)[C@@H](O)[C@@H](C)[C@@H](O)C[C@@H]1CC[C@@](C)([C@H]2CC[C@@](C)([C@@H](C)O)O2)O1` [Ionomycin (calcium)] (2.5 µM) was run?
Answer: inactive: 0

Question: Which “kinase-Nluc reporter destabilization hit call” value does the source give for `CC(C)(C)c1cc(C=C(C#N)C#N)cc(Br)c1O` (2.5 µM) here?
Answer: inactive: 0

Question: Which “kinase-Nluc reporter destabilization hit call” value does the source give for `C=CC(=O)N[C@H]1C=C(C)c2c(-c3cnc4ccccc4c3)c3c(N)ncnc3n2C1` (10 µM) here?
Answer: inactive: 0

Question: For `COC[C@H]1OC(=O)c2coc3c2[C@@]1(C)C1=C(C3=O)[C@@H]2CCC(=O)[C@@]2(C)C[C@H]1OC(C)=O` [Wortmannin] (2.5 µM), which “kinase-Nluc reporter destabilization hit call” value is on record?
Answer: inactive: 0

Question: `CC(=O)c1c(O)c(C)c(O)c(Cc2c(O)c3c(c(C(=O)/C=C/c4ccccc4)c2O)OC(C)(C)C=C3)c1O` [Rottlerin] (2 µM) was tested. Which “kinase-Nluc reporter destabilization hit call” value did it give?
Answer: inactive: 0

Question: How did the “kinase-Nluc reporter destabilization hit call” value turn out when `NCCc1cn(S(=O)(=O)c2c(Cl)nc3sccn23)c2ccccc12` (10 µM) was run?
Answer: inactive: 0
